Test results as given in the supplement of paper PMC12823440, “Inhibitors supercharge kinase turnover through native proteolytic circuits” (Nature, 2025).
The other results are listed elsewhere or left out. The calls rarely recur for the same compound in another form.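 In K562 cells expressing nanoluciferase-fused kinases, luminescence was recorded at 4 h intervals between 2 and 18 h, normalized as percent of control with DMSO at 100% and a positive control at 0%. A significant (2 sigma) signal drop marks a time point as decreased. The authors' rule for a hit is not shown and takes in more than the number of time points.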

Chains of the proteins cited; added tags and fusions are not shown. Lines headed by an entry give the natural chain unless they say otherwise; changes in a name come on top.
UniProt P42680: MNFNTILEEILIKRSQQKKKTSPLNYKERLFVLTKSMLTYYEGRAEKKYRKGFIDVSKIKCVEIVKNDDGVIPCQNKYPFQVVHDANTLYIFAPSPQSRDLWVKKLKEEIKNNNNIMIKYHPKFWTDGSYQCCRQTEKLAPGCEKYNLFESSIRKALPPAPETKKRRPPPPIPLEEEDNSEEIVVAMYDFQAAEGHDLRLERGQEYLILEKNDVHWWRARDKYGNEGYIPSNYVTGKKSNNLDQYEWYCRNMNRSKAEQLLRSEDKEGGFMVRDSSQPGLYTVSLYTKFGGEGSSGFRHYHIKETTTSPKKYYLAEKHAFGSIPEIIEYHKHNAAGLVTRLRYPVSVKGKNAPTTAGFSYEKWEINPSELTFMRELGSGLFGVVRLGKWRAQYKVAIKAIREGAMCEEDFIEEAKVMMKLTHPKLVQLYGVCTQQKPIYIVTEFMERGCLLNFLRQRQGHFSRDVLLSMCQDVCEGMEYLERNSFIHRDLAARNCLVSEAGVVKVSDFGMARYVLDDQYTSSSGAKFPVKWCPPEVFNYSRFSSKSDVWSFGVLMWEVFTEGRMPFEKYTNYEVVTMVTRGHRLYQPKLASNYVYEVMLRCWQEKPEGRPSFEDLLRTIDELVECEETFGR
UniProt P29597: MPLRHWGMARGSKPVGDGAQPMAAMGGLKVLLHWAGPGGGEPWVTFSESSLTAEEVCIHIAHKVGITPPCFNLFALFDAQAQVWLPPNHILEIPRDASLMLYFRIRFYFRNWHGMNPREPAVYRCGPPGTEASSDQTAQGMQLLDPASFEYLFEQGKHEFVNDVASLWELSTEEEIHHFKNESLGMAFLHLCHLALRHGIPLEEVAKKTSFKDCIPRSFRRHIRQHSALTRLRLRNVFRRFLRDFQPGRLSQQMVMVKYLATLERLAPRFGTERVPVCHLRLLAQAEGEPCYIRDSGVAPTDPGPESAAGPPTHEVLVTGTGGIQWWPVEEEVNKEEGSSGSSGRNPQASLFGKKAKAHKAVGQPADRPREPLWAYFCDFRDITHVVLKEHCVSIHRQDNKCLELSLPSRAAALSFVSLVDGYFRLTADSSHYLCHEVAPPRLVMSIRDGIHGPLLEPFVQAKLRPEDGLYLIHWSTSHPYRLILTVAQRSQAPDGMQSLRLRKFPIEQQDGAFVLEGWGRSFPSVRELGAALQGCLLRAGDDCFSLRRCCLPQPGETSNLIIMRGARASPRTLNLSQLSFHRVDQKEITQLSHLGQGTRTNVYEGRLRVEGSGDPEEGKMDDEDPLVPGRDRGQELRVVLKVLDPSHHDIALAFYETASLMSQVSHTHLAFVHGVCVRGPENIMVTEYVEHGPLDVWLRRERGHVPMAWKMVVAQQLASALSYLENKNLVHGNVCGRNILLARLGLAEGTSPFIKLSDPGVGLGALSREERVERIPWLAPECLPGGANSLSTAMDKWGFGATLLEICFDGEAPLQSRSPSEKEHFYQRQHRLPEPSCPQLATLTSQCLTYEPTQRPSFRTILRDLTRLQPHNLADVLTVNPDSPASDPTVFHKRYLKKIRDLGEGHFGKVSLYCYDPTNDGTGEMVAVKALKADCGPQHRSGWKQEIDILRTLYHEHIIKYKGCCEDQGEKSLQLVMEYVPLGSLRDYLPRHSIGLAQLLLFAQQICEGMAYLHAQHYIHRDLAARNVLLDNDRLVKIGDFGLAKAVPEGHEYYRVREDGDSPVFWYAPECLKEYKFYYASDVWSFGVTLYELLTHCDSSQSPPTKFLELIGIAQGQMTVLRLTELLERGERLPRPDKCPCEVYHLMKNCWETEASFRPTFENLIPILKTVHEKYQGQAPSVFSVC

target: TEC (UniProt P42680); assay: number of time points (of 5) at which kinase-Nluc abundance scored as decreased, DMSO-normalised (count); higher = more persistent destabilization; conditions: K562; 2-18 h

Row | Compound | number of time points
1 | O=C1NC(=O)C(c2cnc3ccccn23)=C1c1cn2c3c(cc(F)cc13)CN(C(=O)N1CCCCC1)CC2 (2.5 µM) | 0
2 | Cc1ccc(-c2ncn(-c3ccc(Nc4nccc(-c5cccc(N6CCOCC6)c5)n4)cc3)n2)cn1 (10 µM) | 0
3 | COc1ccc2c(c1OC)OC1c3ccc(O)cc3OCC21 (stereo not drawn) [Methylnissolin] (10 µM) | 0
4 | Cn1cc(-c2ccc3nnc(C(F)(F)c4ccc5ncccc5c4)n3n2)cn1 (10 µM) | 0
5 | Nc1ncc(-c2ccc(C(=O)N3CCNCC3)cc2)nc1-c1ccc(C(F)(F)F)cc1 (10 µM) | 0
6 | CN(C)Cc1cccc(N=C(c2ccccc2)c2c(O)[nH]c3cc(C(=O)N(C)C)ccc23)c1 (10 µM) | 0

Three structures already listed, arranged by SMILES length, rising:
Row | Compound | number of time points
4 | Cn1cc(-c2ccc3nnc(C(F)(F)c4ccc5ncccc5c4)n3n2)cn1 (10 µM) | 0
5 | Nc1ncc(-c2ccc(C(=O)N3CCNCC3)cc2)nc1-c1ccc(C(F)(F)F)cc1 (10 µM) | 0
1 | O=C1NC(=O)C(c2cnc3ccccn23)=C1c1cn2c3c(cc(F)cc13)CN(C(=O)N1CCCCC1)CC2 (2.5 µM) | 0

target: TYK2 (UniProt P29597); assay: as above; conditions: K562; 2-18 h

Row | Compound | number of time points
7 | C[C@H]1Cc2ccccc2N1C(=O)Cc1nc(N2CCOCC2)cc(=O)[nH]1 (2.5 µM) | 0
8 | CC(C)c1cc(/C=C(\C#N)C(N)=O)cc(C(C)C)c1O (10 µM) | 0
9 | COc1c(C)c(C(=O)c2ccc(N)c(C(=O)O)c2)n2ccccc12 (10 µM) | 0
10 | C[C@@H]1CCc2ncc(F)cc2[C@H]2CCCN2c2ccn3ncc(c3n2)C(=O)N1 [Selitrectinib] (10 µM) | 0
11 | CCN(C)C(=O)c1ccc2c(C(=Nc3ccc(CN4CCCCC4)cc3)c3ccccc3)c(O)[nH]c2c1 (2.5 µM) | 0
12 | O=C(CO)N1CCC(c2n[nH]c(-c3ccc(Cl)cc3)c2-c2ccncn2)CC1 (10 µM) | 0
13 | C[C@@H]1COCCN1c1cc(C2([S@](C)(=N)=O)CC2)nc(-c2cc[nH]c3nccc2-3)n1 [Ceralasertib] (2.5 µM) | 0
